Laboratory results reported in PMC7029138, “Modulation of Symbiotic Compatibility by Rhizobial Zinc Starvation Machinery”.
The exact form of at least one protein or probe is not confirmed. Weaker means in comparison with the reference protein, sequence or condition of that experiment. Protein sequences can lack the tags named with them.

Biological target: T1, Zur (His6-Zur) (Sinorhizobium fredii CCBAU45436) (UniProt C3MDK7)
T1 sequence (looked up, limits assumed): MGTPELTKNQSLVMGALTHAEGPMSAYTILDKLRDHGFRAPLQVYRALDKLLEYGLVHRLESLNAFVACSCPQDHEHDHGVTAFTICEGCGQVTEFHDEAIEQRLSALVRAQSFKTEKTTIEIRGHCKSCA
Experiment: EMSA
Conditions: 200 uM ZnSO4 + 50 uM TPEN; 10 mM Tris pH 7.5, 50 mM KCl, 1 mM DTT, 1 ug poly(dI-dC), 200 uM ZnSO4, with or without 50 uM TPEN, ~50 fmol probe in 15 ul, 25 C 20 min; 5% native PAGE in TB at 4 C; recombinant protein; protein details: N-terminal His6 (pET-28a(+), BamHI/HindIII)

Q: Does “GCGACTGCGTCGTGTAATGTTATTACATCAATTGCGTTATGCTATAACGTGTGCAATAGC (double strand) [znuA promoter Zur box probe]” bind?
A: Result: binds more weakly
